In PMC8133684, “The URL1–ROC5–TPL2 transcriptional repressor complex represses the ACL1 gene to modulate leaf rolling in rice”:
No constants are given. Whether binding was seen depends on the method and setting. Binding calls can cover weak binding; strength is not graded here. Where a sequence is shown, tags or fusion partners need not be part of it. For some of these results: In cells and extracts the contact can be indirect. Each block holds one binder with its values, some of them ahead of it.

Key:
[1] = target: N-terminus of TPL2 (TOPLESS co-repressor OsTPL2), yeast two-hybrid fusion (rice (Oryza sativa L.)); assay: two-hybrid; N-terminus of TPL2 as bait in pGBKT7, URL1, URL1mEAR or ROC5 as prey in pGADT7; yeast strain AH109; growth on SD-Leu-Trp-His with 2.5 mM 3-AT (Figure 5E)
[2] = target: N-terminus of TPL2 fused to the N-terminal part of firefly luciferase (rice (Oryza sativa L.)); assay: split reporter; firefly luciferase complementation imaging (LCI); NLUC and CLUC fusions co-expressed by Agrobacterium infiltration in the same N. benthamiana leaf; luciferin sprayed, LUC signal imaged and quantified

- binding [1]: binds
B1: URL1 (UPWARD ROLLED LEAF1), HD-ZIP IV family member RICE OUTERMOST CELL-SPECIFIC 8 (ROC8), yeast two-hybrid fusion (protein, UniProt Q69T58 1-710)
chain: MDFGDEPEGSDSQRRRKRYHRHTPRQIQQLEAMFKECPHPDENQRAQLSRELGLEPRQIKFWFQNRRTQMKAQHERADNCFLRAENDKIRCENIAIREALKNVICPTCGGPPVGEDYFDEQKLRMENARLKEELDRVSNLTSKYLGRPFTQLPPATPPMTVSSLDLSVGGMGGPSLDLDLLSGGSSGIPFQLPAPVSDMERPMMAEMATRAMDELIRLAQAGDHIWSKSPGGGVSGGDARETLNVDTYDSIFSKPGGSYRAPSINVEGSRESGLVLMSAVALADVFMDTNKWMEFFPSIVSKAHTIDVLVNGMGGRSESLILMYEELHIMTPAVPTREVNFVRYCRQIEQGLWAIADVSVDLQRDAHFGAPPPRSRRLPSGCLIADMANGYSKVTWVEHMEVEEKSPINVLYRDLVLSGAAFGAHRWLAALQRACERYASLVALGVPHHIAGVTPEGKRSMMKLSQRMVNSFCSSLGASQMHQWTTLSGSNEVSVRVTMHRSTDPGQPNGVVLSAATSIWLPVPCDHVFAFVRDENTRSQWDVLSHGNQVQEVSRIPNGSNPGNCISLLRGLNASQNSMLILQESCTDASGSLVVYSPIDIPAANVVMSGEDPSSIPLLPSGFTILPDGRPGSAAGASTSSAGPLAAARGGGGGGAGGGSVVTVAFQILVSSLPSSKLNAESVATVNGLITTTVEQIKAALNCSAHGHHP

- binding [2]: binds
B2: URL1 (ROC8) fused to the N- or C-terminal part of firefly luciferase (protein, UniProt Q69T58 1-710)
chain: B1 chain

- binding [1]: binds
B3: ROC5 (RICE OUTERMOST CELL-SPECIFIC 5), HD-ZIP IV family member, yeast two-hybrid fusion (protein, UniProt Q6EPF0 1-804)
chain: MSFGGLFDGGGGGGMQFPFASGFASSPALSLALDNAGGGIGGRMLGGGAGAGSSAGGAMTRDTEAENDSRSGSDHLDAISAAGEDDVEDAEPSNSRKRKKRYHRHTPQQIQELEALFKECPHPDEKQRAELSRRLSLDARQVKFWFQNRRTQMKTQLERHENALLKQENDKLRAENMTIREAMRSPMCGSCGSPAMLGEVSLEEQHLRIENARLKDELNRVCALATKFLGKPISLLSPPPLLQPHLSLPMPNSSLELAIGGIGGLGSLGTLPGCMNEFAGGVSSPMGTVITPARATGAAIPSLVGNIDRSVFLELAISAMDELVKMAQMDDPLWVPALPGSPSKEVLNFEEYLHSFLPCIGMKPAGYVSEASRESGLVIIDNSLALVETLMDERRWSDMFSCMIAKATVLEEVSTGIAGSRNGALLLMKAELQVLSPLVPIREVTFLRFCKQLAEGAWAVVDVSIDGLVRDHNSGTAPTGGNVKCRRVPSGCVMQDTPNGYCKVTWVEHTEYDEASVHQLYRPLLRSGLAFGARRWLATLQRQCECLAILMSSATVTANDSTAISQEGKRSMLKLARRMTENFCAGVSASSAREWSKLDGATGSIGEDVRVMARKSVSEPGEPPGVVLSAATSVWVPVAPEKLFNFLRDEQLRAEWDILSNGGPMQEMTQIAKGQRDGNSVSLLRASAVSANQSSMLILQETCTDASGSIVVYAPVDIPAMQLVMNGGDSTYVALLPSGFAILPDGPRIGATGYETGGSLLTVAFQILVNNQPTAKLTVESVETVNNLISCTIKKIKTALQCDA

- binding [2]: binds
B4: ROC5 fused to the N- or C-terminal part of firefly luciferase (protein, UniProt Q6EPF0 1-804)
chain: B3 chain
